Assay results as given in publication PMC5784158, “New 2-Aryl-9-methyl-β-carbolinium salts as Potential Acetylcholinesterase Inhibitor agents: Synthesis, Bioactivity and Structure–Activity Relationship” (Scientific Reports, 2018).
For part of its entries the source gives two or more results. Only these are listed. The source may hold further records. The values listed for one entry differ for a reason that is not stated; some may be repeats, others may stem from another dose, organism or construct than stated.

Protein sequences, listed by entry. Tags and fused reporters are not part of them. Residues count along the entry.
UniProt Q7YWJ9, 81-659 limits assumed: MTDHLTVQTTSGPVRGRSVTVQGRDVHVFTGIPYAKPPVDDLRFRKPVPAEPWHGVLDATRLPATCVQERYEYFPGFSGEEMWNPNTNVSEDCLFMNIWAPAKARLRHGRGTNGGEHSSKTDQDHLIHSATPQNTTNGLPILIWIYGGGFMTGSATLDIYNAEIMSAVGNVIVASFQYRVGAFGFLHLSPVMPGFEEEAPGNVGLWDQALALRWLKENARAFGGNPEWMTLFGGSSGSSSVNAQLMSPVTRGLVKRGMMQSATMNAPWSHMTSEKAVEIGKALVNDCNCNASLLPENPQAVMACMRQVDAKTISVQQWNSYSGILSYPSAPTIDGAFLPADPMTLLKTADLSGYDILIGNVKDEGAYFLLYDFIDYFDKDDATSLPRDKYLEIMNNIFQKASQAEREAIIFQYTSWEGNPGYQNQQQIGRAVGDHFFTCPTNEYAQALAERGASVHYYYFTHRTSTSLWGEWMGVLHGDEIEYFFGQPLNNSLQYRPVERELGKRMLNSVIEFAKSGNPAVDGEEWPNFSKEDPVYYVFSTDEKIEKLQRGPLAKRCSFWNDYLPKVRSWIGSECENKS

Molecular target: AChE (Musca domestica, UniProt Q7YWJ9)
Conditions: tested form: bromide

Question: C1=[N+](c2ccccc2)CCc2c1[nH]c1ccccc21 [Compound A46] was tested. Which SI: selectivity index, ratio IC50 (BuChE)/IC50 (AChE) did it give?
Answer: < 1 and 0.21
